Molecules are shown by their SMILES. Some values come without a unit; they compare only within their column.

In one series the test system is sugar cane plants. Kind of series: Lignin staining of bagasse from sugar cane treated with modified precursors (Example 4). It is filed as in vivo, Saccharum officinarum L. Particulars: 5 g drench to roots at 4 and 2 weeks before harvest, no fungus, scale 9 most intense to 0 no staining.
The test system of a further series is Tulip trees. The experiment in a line: Fungicidal candidates injected into Tulip tree seedlings: plant development, phytotoxicity, lignin staining (Example 12 i). Type of series: in vivo, Liriodendron tulipifera. The following applies: Tulip tree stem; 100 ppm application rate, injection, harvested after 4 weeks; no fungus; scale 9 to 0.

For `O=C(O)C=Cc1c(F)cccc1F` [2,6-Difluorocinnamic Acid], the Lignin stain intensity in the series with sugar cane plants is recorded as 8; in the series with sugar cane plants (listed as 2,6-difluorocinnamic acid), “neither the addition of the normal, unmodified lignin precursor, cinnamic acid, nor the addition of halogenated, 2,6-difluorocinnamic acid resulted in increased staining”.
Consider `O=Cc1ccc(O)cc1Cl` [2-Chloro-4-hydroxybenzaldehyde], for which the Lignin stain intensity in the series on sugar cane plants was determined as 8.
Still for that read-out and setting: under `O=Cc1cc(Br)c(O)c(Br)c1` [3,5-Dibromo-4-hydroxybenzaldehyde] stands 8; under `O=C(O)C=Cc1cccc(Cl)c1` [3-Cholorcinnamic Acid, 3-Cholorcinnamic acid], 8.
`COC(=O)Nc1nc2ccccc2[nH]1` [Carbendazim, methyl-2-benzimidazole carbamate]: the “Lignin Stain” value in the series on Tulip trees was determined as 9.
With `O=C(O)C=Cc1ccccc1` [Cinnamic Acid, reference compound], the Lignin stain intensity in the series with sugar cane plants is given as 8; with sugar cane plants (listed as cinnamic acid) it was “neither the addition of the normal, unmodified lignin precursor, cinnamic acid, nor the addition of halogenated, 2,6-difluorocinnamic acid resulted in increased staining”.
For the molecule `CCCC1COC(Cn2cncn2)(c2ccc(Cl)cc2Cl)O1` (centres unmarked) [Propiconazole, 1-[[2-(2,4-dichlorophenyl)-4-propyl-1,3-dioxolan-2-yl]methyl]-1H-1,2,4-triazole], in the series on Tulip trees, the “Lignin Stain” value is recorded as 9.
As to `c1ccc2[nH]c(-c3cscn3)nc2c1` [Thiabendazole, 2-(4-thiazolyl)benzimidazole], the “Lignin Stain” value in the series on Tulip trees worked out at 9.
On to `O=C(O)C(F)=Cc1ccccc1` [alpha-Fluorocinnamic Acid], for which the Lignin stain intensity in the series with sugar cane plants is 8.

Source of the values: patent publication US6906239B2, “Plant preparations” (priority 2002, dated 2005).
